The target of this experiment is atypical chemokine receptor 3 (human (endogenous in hPPAEC)), P25106. Kind of experiment: proximity ligation; hPPAEC; mouse anti-ACKR3 and goat anti-CXCR4; control: omission of one secondary antibody. The settings on record: remark: other sources report otherwise.

In paper PMC5681266 one finds binding data, which are given here for one molecule.

These are yes or no findings as the source states them, for the method shown. In cells and extracts the contact can be indirect. Some results given as binding are weak or reduced against the parent protein; the word gives no strength.

B1: chemokine (C-X-C) motif receptor (CXCR) 4, P61073 1-352 (receptor)
chain: MEGISIYTSDNYTEEMGSGDYDSMKEPCFREENANFNKIFLPTIYSIIFLTGIVGNGLVILVMGYQKKLRSMTDKYRLHLSVADLLFVITLPFWAVDAVANWYFGNFLCKAVHVIYTVNLYSSVLILAFISLDRYLAIVHATNSQRPRKLLAEKVVYVGVWIPALLLTIPDFIFANVSEADDRYICDRFYPNDLWVVVFQFQHIMVGLILPGIVILSCYCIIISKLSHSKGHQKRKALKTTVILILAFFACWLPYYIGISIDSFILLEIIKQGCEFENTVHKWISITEALAFFHCCLNPILYAFLGAKFKTSAQHALTSVSRGSSLKILSKGKRGGHSSVSTESESSSFHSS
In the case of B1, the binding result was “binds”.
